Experimental data: PubChem BioAssay AID1259254 (NCATS, 2017)
Assay: 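Genome-wide screen for genes that prevent DNA re-replication in cancer cells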 (primary screen). Cells: human HCT116 colorectal cancer cells. Reagents: single siRNA against human genes. Duration: 3 days. Read-out: 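Nuclei stained with Hoechst and imaged; cell-cycle phase assigned by DNA content; G2 share scaled per plate, non-targeting siRNA 0%, GMNN siRNA 100%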. Direction: G2 robust z-score and G2 cells, % of GMNN control: higher = more G2 cells, more excess DNA replication; raw share of cells in G2: higher = larger share of cells with G2 DNA content. Call rule: 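Active siRNAs have a G2 robust z of 5 or more median absolute deviations over the median, which in these data means about 38% or higher of GMNN control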.
This is an unselected part of about 59,000 reagents. In the full data, about 1,550 (2.6%) are marked active. 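G2 share is only a proxy for re-replication; each gene was hit by three separate siRNAs, and active genes were retested.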 The raw values are shown without normalisation. Reagents against one gene are numbered here. Not stated in the record: the amount of reagent.

gene knocked down	siRNA no.	G2 robust z-score	G2 cells, % of GMNN control	raw share of cells in G2 (%)	Outcome
DUSP6 (GeneID 1848)	1	0.601	7.2	7.13	inactive
DUSP6 (GeneID 1848)	2	-1.16	-5.18	2.74	inactive
DUSP6 (GeneID 1848)	3	0.408	5.84	5.26	inactive
HNRNPA3 (GeneID 220988)	1	0.224	4.54	6.61	inactive
HNRNPA3 (GeneID 220988)	2	-0.743	-2.26	4.88	inactive
HNRNPA3 (GeneID 220988)	3	-1.31	-6.27	2.41	inactive
ROPN1L (GeneID 83853)	1	-0.618	-1.38	3.08	inactive
ROPN1L (GeneID 83853)	2	-0.109	2.2	4.84	inactive
ROPN1L (GeneID 83853)	3	3.13	25	10.9	inactive
ROPN1L (GeneID 83853)	4	-0.76	-2.38	1.68	inactive
ROPN1L (GeneID 83853)	5	1.63	14.5	9.03	inactive
ROPN1L (GeneID 83853)	6	-0.65	-1.6	2.31	inactive

Part of the list above, reduced to “G2 robust z-score”.
HNRNPA3 (GeneID 220988) #2 = -0.743
HNRNPA3 (GeneID 220988) #3 = -1.31

The results go on:
gene knocked down	siRNA no.	G2 robust z-score	G2 cells, % of GMNN control	raw share of cells in G2 (%)	Outcome
EVA1C (GeneID 59271)	1	0.556	6.88	7.06	inactive
EVA1C (GeneID 59271)	2	-0.471	-0.347	4.29	inactive
EVA1C (GeneID 59271)	3	-0.934	-3.6	1.89	inactive
ENTPD5 (GeneID 957)	1	3.63	28.5	14.1	inactive
ENTPD5 (GeneID 957)	2	0.514	6.58	6.29	inactive
ENTPD5 (GeneID 957)	3	-0.724	-2.12	2.86	inactive
CYP2R1 (GeneID 120227)	1	0.072	3.47	6.46	inactive
CYP2R1 (GeneID 120227)	2	-0.00699	2.92	7.03	inactive
CYP2R1 (GeneID 120227)	3	-1.12	-4.92	2.62	inactive
PKP1 (GeneID 5317)	1	2.82	22.8	12.2	inactive
PKP1 (GeneID 5317)	2	-0.17	1.77	4.84	inactive
PKP1 (GeneID 5317)	3	1.06	10.4	6.63	inactive
SPP2 (GeneID 6694)	1	-0.99	-4	2.76	inactive
SPP2 (GeneID 6694)	2	0.306	5.12	5.09	inactive
SPP2 (GeneID 6694)	3	-0.288	0.943	3.38	inactive
MVB12B (GeneID 89853)	1	-0.936	-3.62	2.55	inactive
MVB12B (GeneID 89853)	2	-0.439	-0.12	2.96	inactive
MVB12B (GeneID 89853)	3	1.89	16.3	8.08	inactive
